PubChem BioAssay AID1259254 | NCATS | 2017
Shown is an unselected part of about 59,000 reagents. About 1,550 of them (2.6%) were called active. 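G2 share is only a proxy for re-replication; each gene was hit by three separate siRNAs, and active genes were retested.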 Raw values are not corrected between plates. The numbers tell different reagents against one gene apart. Not stated in the record: the amount of reagent.

Aim: 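Finding genes that stop cells copying their DNA twice in one cycle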 (primary screen)
Cells: human HCT116 colorectal cancer cells
Knock-down reagent: single siRNA against human genes
Timing: 3 days
Measured: 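Nuclei stained with Hoechst and imaged; cell-cycle phase assigned by DNA content; G2 share scaled per plate, non-targeting siRNA 0%, GMNN siRNA 100%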
Reading the numbers: G2 robust z-score and G2 cells, % of GMNN control: higher = more G2 cells, more excess DNA replication; raw share of cells in G2: higher = larger share of cells with G2 DNA content
Active means: 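Active siRNAs have a G2 robust z of 5 or more median absolute deviations over the median, which in these data means about 38% or higher of GMNN control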

gene symbol | reagent no. | G2 robust z-score | G2 cells, % of GMNN control | raw share of cells in G2 (%) | Call
RANBP3L (RAN binding protein 3 like) | 1 | 2.31 | 19.2 | 10.5 | inactive
RANBP3L (RAN binding protein 3 like) | 2 | 1.05 | 10.4 | 6.68 | inactive
RANBP3L (RAN binding protein 3 like) | 3 | -0.873 | -3.17 | 2.18 | inactive
DDX11 (DEAD/H-box helicase 11) | 1 | -0.485 | -0.447 | 4.8 | inactive
DDX11 (DEAD/H-box helicase 11) | 2 | 1.09 | 10.7 | 7.76 | inactive
DDX11 (DEAD/H-box helicase 11) | 3 | 0.00643 | 3.01 | 6.09 | inactive
TMEM41B (transmembrane protein 41B) | 1 | 6.75 | 50.4 | 22.2 | active
TMEM41B (transmembrane protein 41B) | 2 | 3.92 | 30.5 | 15.6 | inactive
TMEM41B (transmembrane protein 41B) | 3 | 1.04 | 10.3 | 9.07 | inactive
SEPTIN5 (septin 5) | 1 | -0.443 | -0.152 | 4.93 | inactive
SEPTIN5 (septin 5) | 2 | 0.336 | 5.33 | 6.71 | inactive
SEPTIN5 (septin 5) | 3 | 10.9 | 80 | 30.8 | active
PPM1B (protein phosphatase, Mg2+/Mn2+ dependent 1B) | 1 | 7.38 | 54.9 | 20.8 | active
PPM1B (protein phosphatase, Mg2+/Mn2+ dependent 1B) | 2 | -1.42 | -7 | 2.52 | inactive
PPM1B (protein phosphatase, Mg2+/Mn2+ dependent 1B) | 3 | -0.557 | -0.951 | 3.21 | inactive
SPRR4 (small proline rich protein 4) | 1 | -1.47 | -7.38 | 2.44 | inactive
SPRR4 (small proline rich protein 4) | 2 | 1.65 | 14.5 | 10 | inactive
SPRR4 (small proline rich protein 4) | 3 | 5.99 | 45.1 | 23.7 | active
PRDM8 (PR/SET domain 8) | 1 | 1.33 | 12.4 | 9.22 | inactive
PRDM8 (PR/SET domain 8) | 2 | 4.03 | 31.3 | 19.4 | inactive
PRDM8 (PR/SET domain 8) | 3 | -0.603 | -1.28 | 2.63 | inactive
WBP2 (WW domain binding protein 2) | 1 | 0.358 | 5.48 | 5.22 | inactive
WBP2 (WW domain binding protein 2) | 2 | 1.67 | 14.7 | 9.96 | inactive
WBP2 (WW domain binding protein 2) | 3 | 0.372 | 5.59 | 6.36 | inactive
UQCRB (ubiquinol-cytochrome c reductase binding protein) | 1 | 2.16 | 18.1 | 11 | inactive
UQCRB (ubiquinol-cytochrome c reductase binding protein) | 2 | -1.24 | -5.76 | 3.16 | inactive
UQCRB (ubiquinol-cytochrome c reductase binding protein) | 3 | 1.26 | 11.9 | 8.38 | inactive
FMO5 (flavin containing dimethylaniline monoxygenase 5) | 1 | 0.321 | 5.23 | 5.52 | inactive
FMO5 (flavin containing dimethylaniline monoxygenase 5) | 2 | 1.85 | 16 | 11.3 | inactive
FMO5 (flavin containing dimethylaniline monoxygenase 5) | 3 | -0.863 | -3.1 | 4.11 | inactive
LVRN (laeverin) | 1 | 0.347 | 5.41 | 7.88 | inactive
LVRN (laeverin) | 2 | 2.11 | 17.8 | 10.3 | inactive
LVRN (laeverin) | 3 | -0.237 | 1.3 | 4.75 | inactive
DDIT4L (DNA damage inducible transcript 4 like) | 1 | -0.281 | 0.993 | 4.49 | inactive
DDIT4L (DNA damage inducible transcript 4 like) | 2 | -1.07 | -4.59 | 1.96 | inactive
DDIT4L (DNA damage inducible transcript 4 like) | 3 | -0.0406 | 2.68 | 2.6 | inactive
AKAP8 (A-kinase anchoring protein 8) | 1 | 5.26 | 40 | 18 | active
AKAP8 (A-kinase anchoring protein 8) | 2 | -0.0416 | 2.67 | 6.16 | inactive
AKAP8 (A-kinase anchoring protein 8) | 3 | 0.48 | 6.35 | 5.71 | inactive
KLK5 (kallikrein related peptidase 5) | 1 | 2.46 | 20.3 | 12.6 | inactive
KLK5 (kallikrein related peptidase 5) | 2 | 0.0108 | 3.04 | 5.98 | inactive
KLK5 (kallikrein related peptidase 5) | 3 | 0.547 | 6.81 | 6.45 | inactive
PALM2AKAP2 (PALM2 and AKAP2 fusion) | 1 | -0.88 | -3.22 | 2.02 | inactive
PALM2AKAP2 (PALM2 and AKAP2 fusion) | 2 | 0.056 | 3.36 | 5.44 | inactive
PALM2AKAP2 (PALM2 and AKAP2 fusion) | 3 | 0.305 | 5.12 | 4.85 | inactive
PALM2AKAP2 (PALM2 and AKAP2 fusion) | 4 | -0.41 | 0.0816 | 1.84 | inactive
PALM2AKAP2 (PALM2 and AKAP2 fusion) | 5 | 0.741 | 8.18 | 6.78 | inactive
PALM2AKAP2 (PALM2 and AKAP2 fusion) | 6 | 0.602 | 7.2 | 6.15 | inactive
ANKRD30A (ankyrin repeat domain 30A) | 1 | -0.0271 | 2.78 | 5.53 | inactive
ANKRD30A (ankyrin repeat domain 30A) | 2 | 1.27 | 11.9 | 10.1 | inactive
ANKRD30A (ankyrin repeat domain 30A) | 3 | -0.362 | 0.422 | 5.87 | inactive
SLURP1 (secreted LY6/PLAUR domain containing 1) | 1 | -0.388 | 0.237 | 4.44 | inactive
SLURP1 (secreted LY6/PLAUR domain containing 1) | 2 | -0.551 | -0.908 | 4.03 | inactive
SLURP1 (secreted LY6/PLAUR domain containing 1) | 3 | -0.428 | -0.0419 | 3.02 | inactive
SMCHD1 | 1 | -0.491 | -0.484 | 4.23 | inactive
SMCHD1 | 2 | 0.29 | 5.01 | 6.11 | inactive
SMCHD1 | 3 | -0.978 | -3.91 | 1.93 | inactive
POMK (protein O-mannose kinase) | 1 | 2.69 | 21.9 | 11.4 | inactive
POMK (protein O-mannose kinase) | 2 | -0.261 | 1.13 | 3.79 | inactive
POMK (protein O-mannose kinase) | 3 | 1.82 | 15.8 | 7.19 | inactive
PDZK1IP1 (PDZK1 interacting protein 1) | 1 | -0.545 | -0.868 | 4.94 | inactive
PDZK1IP1 (PDZK1 interacting protein 1) | 2 | 1.1 | 10.7 | 8.42 | inactive
PDZK1IP1 (PDZK1 interacting protein 1) | 3 | 1.12 | 10.9 | 7.36 | inactive
GATA4 (GATA binding protein 4) | 1 | 0.229 | 4.58 | 5.28 | inactive
GATA4 (GATA binding protein 4) | 2 | 0.00413 | 3 | 6.25 | inactive
GATA4 (GATA binding protein 4) | 3 | -0.7 | -1.96 | 2.4 | inactive
LRAT (lecithin retinol acyltransferase) | 1 | 3.3 | 26.2 | 14.4 | inactive
LRAT (lecithin retinol acyltransferase) | 2 | -0.738 | -2.22 | 3.53 | inactive
LRAT (lecithin retinol acyltransferase) | 3 | 0.104 | 3.7 | 6.03 | inactive

10 entries from above, arranged by “G2 cells, % of GMNN control”, lowest first.
gene symbol | reagent no. | G2 robust z-score | G2 cells, % of GMNN control | raw share of cells in G2 (%) | Call
RANBP3L (RAN binding protein 3 like) | 3 | -0.873 | -3.17 | 2.18 | inactive
DDX11 (DEAD/H-box helicase 11) | 1 | -0.485 | -0.447 | 4.8 | inactive
SEPTIN5 (septin 5) | 1 | -0.443 | -0.152 | 4.93 | inactive
DDX11 (DEAD/H-box helicase 11) | 3 | 0.00643 | 3.01 | 6.09 | inactive
SEPTIN5 (septin 5) | 2 | 0.336 | 5.33 | 6.71 | inactive
TMEM41B (transmembrane protein 41B) | 3 | 1.04 | 10.3 | 9.07 | inactive
DDX11 (DEAD/H-box helicase 11) | 2 | 1.09 | 10.7 | 7.76 | inactive
TMEM41B (transmembrane protein 41B) | 2 | 3.92 | 30.5 | 15.6 | inactive
TMEM41B (transmembrane protein 41B) | 1 | 6.75 | 50.4 | 22.2 | active
SEPTIN5 (septin 5) | 3 | 10.9 | 80 | 30.8 | active
